In publication PMC4703869:
Results are given in words; binding and its absence hold for the method and conditions named. In cells and extracts the contact can be indirect. Some results given as binding are weak or reduced against the parent protein; the word gives no strength.

Sequences of proteins named here, by UniProt entry; tags and fusion partners are left off.
UniProt P46937: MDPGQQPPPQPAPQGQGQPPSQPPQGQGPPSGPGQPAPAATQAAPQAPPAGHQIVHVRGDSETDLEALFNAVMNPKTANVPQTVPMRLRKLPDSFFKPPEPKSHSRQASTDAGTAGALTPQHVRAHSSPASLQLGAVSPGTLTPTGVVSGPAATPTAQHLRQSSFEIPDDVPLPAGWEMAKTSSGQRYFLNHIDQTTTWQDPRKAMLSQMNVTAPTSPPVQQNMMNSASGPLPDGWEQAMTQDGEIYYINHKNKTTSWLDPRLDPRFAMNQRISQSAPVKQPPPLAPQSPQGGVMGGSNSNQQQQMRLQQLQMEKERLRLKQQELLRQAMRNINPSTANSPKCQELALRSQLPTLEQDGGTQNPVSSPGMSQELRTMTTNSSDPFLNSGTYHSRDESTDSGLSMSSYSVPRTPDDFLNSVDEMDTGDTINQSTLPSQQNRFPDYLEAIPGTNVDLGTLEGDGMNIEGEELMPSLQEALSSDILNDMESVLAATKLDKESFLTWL

T1: endogenous SRF of 293T cells (human (endogenous in 293T)) (UniProt P11831)
T1 sequence: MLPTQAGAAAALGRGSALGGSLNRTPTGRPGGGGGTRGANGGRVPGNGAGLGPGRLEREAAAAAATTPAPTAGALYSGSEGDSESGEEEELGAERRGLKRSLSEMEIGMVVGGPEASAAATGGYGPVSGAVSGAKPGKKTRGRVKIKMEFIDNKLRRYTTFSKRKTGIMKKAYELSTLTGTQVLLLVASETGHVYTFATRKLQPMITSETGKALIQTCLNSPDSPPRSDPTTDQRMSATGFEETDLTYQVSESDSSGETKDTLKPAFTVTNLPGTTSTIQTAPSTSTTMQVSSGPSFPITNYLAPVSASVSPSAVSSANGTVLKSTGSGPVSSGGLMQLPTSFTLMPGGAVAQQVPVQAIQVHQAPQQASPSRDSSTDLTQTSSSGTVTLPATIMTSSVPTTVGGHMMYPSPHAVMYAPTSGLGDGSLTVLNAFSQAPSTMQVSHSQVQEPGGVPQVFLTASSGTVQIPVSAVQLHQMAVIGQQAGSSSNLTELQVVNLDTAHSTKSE


Assays:
[1] = biological target: T1, endogenous SRF of 293T cells (human (endogenous in 293T)); assay: co-IP; endogenous proteins of 293T cell extract crosslinked with DSP; precipitated with YAP antibody or SRF antibody and protein A/G agarose; benzonase
[2] = biological target: endogenous YAP of 293T cells (human (endogenous in 293T)) (UniProt P46937); assay: as above

| Molecule | binding [1] | binding [2] |
| --- | --- | --- |
| endogenous YAP of 293T cells (from UniProt P46937 1-504) | binds | – |
| endogenous SRF of 293T cells (protein, UniProt P11831 1-508) MLPTQAGAAAALGRGSALGGSLNRTPTGRPGGGGGTRGANGGRVPGNGAGLGPGRLEREAAAAAATTPAPTAGALYSGSEGDSESGEEEELGAERRGLKRSLSEMEIGMVVGGPEASAAATGGYGPVSGAVSGAKPGKKTRGRVKIKMEFIDNKLRRYTTFSKRKTGIMKKAYELSTLTGTQVLLLVASETGHVYTFATRKLQPMITSETGKALIQTCLNSPDSPPRSDPTTDQRMSATGFEETDLTYQVSESDSSGETKDTLKPAFTVTNLPGTTSTIQTAPSTSTTMQVSSGPSFPITNYLAPVSASVSPSAVSSANGTVLKSTGSGPVSSGGLMQLPTSFTLMPGGAVAQQVPVQAIQVHQAPQQASPSRDSSTDLTQTSSSGTVTLPATIMTSSVPTTVGGHMMYPSPHAVMYAPTSGLGDGSLTVLNAFSQAPSTMQVSHSQVQEPGGVPQVFLTASSGTVQIPVSAVQLHQMAVIGQQAGSSSNLTELQVVNLDTAHSTKSE | – | binds |
